The target of this experiment is T1, small regulatory polypeptide of amino acid response (SPAAR), HA tagged (human).
T1 sequence: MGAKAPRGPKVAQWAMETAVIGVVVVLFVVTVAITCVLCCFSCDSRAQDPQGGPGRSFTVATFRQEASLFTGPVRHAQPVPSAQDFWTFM
Put plainly: affinity purification with mass spectrometry; anti-HA immunoprecipitation from HUVECs expressing LV-SPAAR-HA; controls: anti-IgG, LV-Null and untagged LV-SPAAR cells; two replicates; partners defined by detection in both replicates and two-fold enrichment over controls.

Results are given in words; binding and its absence hold for the method and conditions named. In cells and extracts the contact can be indirect. Here binding means that the protein was enriched with, or labelled near, the bait; the list need not be complete. Where a sequence is shown, tags or fusion partners need not be part of it.

As for SYNE1 (from UniProt Q8NF91 1-8797), the binding entry is reported as “binds”.

Source of the values: paper PMC8216332.
